Assays:
Assay type in all cases: cell-based
[1] = tested on: triple-negative breast cancer MDA-MB-231; experiment: MTT cell viability assay, MDA-MB-231; conditions: Homo sapiens, 72 h
[2] = tested on: human foreskin fibroblasts (HFs); experiment: MTT cell viability assay, fibroblasts; conditions: Fibroblast, 72 h
human glioblastoma U-87 = experiment: MTT cell viability assay, U-87; conditions: 72 h
[3] = tested on: prostate adenocarcinoma PPC-1; experiment: MTT cell viability assay, PPC-1; conditions: Homo sapiens, 72 h

EC50 [1]: > 500 µM | EC50 (human glioblastoma U-87): > 500 µM | EC50 [3]: > 500 µM
Compound: CC(=O)Nc1nnc(S(N)(=O)=O)s1 [AZM, acetazolamide, reference compound]
EC50 [2]: > 500 µM

Reference: PMC12249541, “Novel Derivatives of 3-Amino-4-hydroxy-benzenesulfonamide: Synthesis, Binding to Carbonic Anhydrases, and Activity in Cancer Cell 2D and 3D Cultures” (International Journal of Molecular Sciences, 2025)
